According to patent EP4596580A1:
These are yes or no findings as the source states them, for the method shown. Some binding calls cover weakened binding; strength is not graded here.

Assays:
His-human LIGHT (human) = test: ELISA, His-huLIGHT coated
[1] = target: His-cynomolgus monkey LIGHT (cynomolgus monkey); test: ELISA, His-cynoLIGHT coated

B1: hum_LT-m37-13 (antibody, human IgG4, V domains shown)
VH: QVQLVQSGAEVKKPGASVKVSCKASGYSFTGYFINWVRQAPGQGLEWIGRIYPYNVDTFYNQNFKGRVTMTADKSTSTAYMELSSLRSEDTAVYYCGRGTHYYGSSGAMDYWGQGTLVTVSS
VL: EIVLTQSPATLSVSPGERATLSCKASQNVGTAVAWYQQKPGQSPRLLIYSASNRYTGIPARFSGSGSGTEFTLTISSLQSEDFAVYFCQQYSSYPYTFGGGTKVEIK
**Q.** How did the binding (His-human LIGHT (human)) turn out when B1 was run?
**A.** binds

**Q.** What about the binding [1] of the same binder?
**A.** binds
